Earlier results, collected in patent US20130324493A1, “COMPOSITIONS COMPRISING NINGNANMYCIN AND USES THEREFOR” (North Carolina State University, priority 2012, published 2013).

Conditions: cited from earlier work

## CNCC(=O)NC(CO)C(=O)NC1C(C(N)=O)OC(n2ccc(N)nc2=O)C(O)C1O [ningnanmycin, 4-sarcosinamido-L-serinamido-4-deoxy-β-D-pyranoglucuronamido]
Bean field soil
  Residues on treated crop and soil: 0.0034 µg/mL
Bean
  Residues on treated crop and soil: 0.0160 µg/mL
Cucumber field soil
  Residues on treated crop and soil: Undetectable
Hay
  Residues on treated crop and soil: 0.1133 µg/mL
Husk
  Residues on treated crop and soil: 0.1113 µg/mL
Rice field soil
  Residues on treated crop and soil: 0.0003 µg/mL
Rice field water
  Residues on treated crop and soil: Undetectable
Rice grain
  Residues on treated crop and soil: 0.0350 µg/mL
Rice leaf
  Residues on treated crop and soil: 0.0952 µg/mL
Wheat grain
  Residues on treated crop and soil: 0.0002 µg/mL

Read-outs that look alike come from different tables or passages of the source.
